Measured values: paper PMC11371196

By UniProt entry, the sequences of proteins in these tests, tags left out. Where a name states a change or a piece, a line headed by the entry shows the natural chain unless it says otherwise.
UniProt O80837: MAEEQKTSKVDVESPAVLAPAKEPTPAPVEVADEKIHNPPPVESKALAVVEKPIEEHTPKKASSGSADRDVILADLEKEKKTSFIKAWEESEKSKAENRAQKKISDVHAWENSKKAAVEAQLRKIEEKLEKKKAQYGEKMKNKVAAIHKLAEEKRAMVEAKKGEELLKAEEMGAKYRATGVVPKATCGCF
UniProt Q9M2D8: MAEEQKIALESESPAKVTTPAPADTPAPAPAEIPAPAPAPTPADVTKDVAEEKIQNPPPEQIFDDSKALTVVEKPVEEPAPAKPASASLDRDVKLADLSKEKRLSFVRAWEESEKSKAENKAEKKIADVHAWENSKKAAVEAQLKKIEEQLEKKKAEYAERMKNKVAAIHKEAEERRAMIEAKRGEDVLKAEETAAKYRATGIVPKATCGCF
UniProt Q9FX32: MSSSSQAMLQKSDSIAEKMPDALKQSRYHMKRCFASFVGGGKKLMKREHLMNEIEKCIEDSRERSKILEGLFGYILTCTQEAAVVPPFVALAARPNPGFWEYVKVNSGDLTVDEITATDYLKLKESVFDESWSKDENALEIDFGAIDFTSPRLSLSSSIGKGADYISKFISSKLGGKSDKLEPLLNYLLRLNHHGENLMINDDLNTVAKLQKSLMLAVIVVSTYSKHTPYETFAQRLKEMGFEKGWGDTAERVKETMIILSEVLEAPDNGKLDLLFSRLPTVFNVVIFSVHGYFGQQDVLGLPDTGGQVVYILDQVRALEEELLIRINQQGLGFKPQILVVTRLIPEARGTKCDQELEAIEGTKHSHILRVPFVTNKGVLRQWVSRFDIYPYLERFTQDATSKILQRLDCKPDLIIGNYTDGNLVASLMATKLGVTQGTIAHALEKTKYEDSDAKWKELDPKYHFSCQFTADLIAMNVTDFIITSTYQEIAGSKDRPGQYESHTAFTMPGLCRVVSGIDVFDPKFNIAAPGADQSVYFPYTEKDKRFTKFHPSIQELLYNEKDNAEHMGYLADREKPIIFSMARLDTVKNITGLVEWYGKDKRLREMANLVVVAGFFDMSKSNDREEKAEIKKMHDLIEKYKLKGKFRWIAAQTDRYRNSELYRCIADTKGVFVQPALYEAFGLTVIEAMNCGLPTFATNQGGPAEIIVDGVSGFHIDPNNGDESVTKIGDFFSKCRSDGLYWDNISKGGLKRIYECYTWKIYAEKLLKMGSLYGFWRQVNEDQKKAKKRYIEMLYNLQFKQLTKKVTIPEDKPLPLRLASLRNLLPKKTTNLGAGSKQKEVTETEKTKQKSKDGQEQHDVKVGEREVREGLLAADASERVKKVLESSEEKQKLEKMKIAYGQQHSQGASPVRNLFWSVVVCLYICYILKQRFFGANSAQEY

Assays:
Assay in all cases: proximity labelling; TurboID fusions under ProUBQ10 in 14-day-old Arabidopsis seedlings, 50 μM biotin for 3 h at room temperature; biotinylated proteins enriched on streptavidin beads, TMT LC-MS/MS; compared with wild-type Col-0 and between baits
[1] = target: T1, PDLP5-TurboID-3xFlag (Arabidopsis thaliana) (UniProt Q8GUJ2)
T1 sequence: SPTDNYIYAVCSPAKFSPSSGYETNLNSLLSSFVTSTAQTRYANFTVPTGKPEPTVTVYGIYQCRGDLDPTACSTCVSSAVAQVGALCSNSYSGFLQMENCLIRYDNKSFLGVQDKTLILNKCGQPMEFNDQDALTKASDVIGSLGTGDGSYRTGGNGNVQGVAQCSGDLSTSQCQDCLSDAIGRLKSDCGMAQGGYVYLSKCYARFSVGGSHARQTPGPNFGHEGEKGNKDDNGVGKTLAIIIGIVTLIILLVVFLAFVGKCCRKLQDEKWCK

[2] = target: T2, PDLP6-TurboID-3xFlag (Arabidopsis thaliana) (UniProt Q9ZU94)
T2 sequence: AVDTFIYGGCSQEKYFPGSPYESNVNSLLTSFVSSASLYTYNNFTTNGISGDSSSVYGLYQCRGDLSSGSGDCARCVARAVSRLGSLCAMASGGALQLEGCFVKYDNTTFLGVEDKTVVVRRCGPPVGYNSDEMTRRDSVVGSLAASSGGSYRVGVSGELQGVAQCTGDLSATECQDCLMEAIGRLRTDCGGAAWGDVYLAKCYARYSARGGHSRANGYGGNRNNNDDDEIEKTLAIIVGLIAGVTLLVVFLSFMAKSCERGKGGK

[3] = target: T3, 3xFlag-TurboID-MCTP3 (Arabidopsis thaliana) (UniProt Q9M2R0)
T3 sequence: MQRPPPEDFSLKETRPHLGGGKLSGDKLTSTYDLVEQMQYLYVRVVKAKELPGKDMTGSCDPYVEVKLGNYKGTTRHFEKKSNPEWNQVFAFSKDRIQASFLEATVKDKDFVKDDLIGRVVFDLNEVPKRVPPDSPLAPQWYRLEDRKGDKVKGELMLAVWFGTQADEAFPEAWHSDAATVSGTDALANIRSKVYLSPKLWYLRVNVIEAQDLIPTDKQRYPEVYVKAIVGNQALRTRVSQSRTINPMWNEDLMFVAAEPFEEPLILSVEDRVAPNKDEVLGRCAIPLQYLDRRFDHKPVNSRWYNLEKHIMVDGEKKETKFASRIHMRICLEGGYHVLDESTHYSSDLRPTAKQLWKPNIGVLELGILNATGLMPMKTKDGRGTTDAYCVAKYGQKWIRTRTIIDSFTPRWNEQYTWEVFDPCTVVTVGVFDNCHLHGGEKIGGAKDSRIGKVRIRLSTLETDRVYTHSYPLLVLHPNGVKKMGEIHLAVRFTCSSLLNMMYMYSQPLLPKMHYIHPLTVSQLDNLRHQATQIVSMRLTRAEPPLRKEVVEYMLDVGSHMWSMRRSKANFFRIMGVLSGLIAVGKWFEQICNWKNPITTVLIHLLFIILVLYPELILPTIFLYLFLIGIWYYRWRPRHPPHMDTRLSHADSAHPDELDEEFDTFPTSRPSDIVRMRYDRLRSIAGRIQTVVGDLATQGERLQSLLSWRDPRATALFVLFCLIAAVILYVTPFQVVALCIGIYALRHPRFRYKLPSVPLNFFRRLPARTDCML

Substance | binding [1] | binding [2] | binding [3]
REM1.3 (from UniProt O80837) | binds | binds | –
REM1.2 (from UniProt Q9M2D8) | binds | binds | –
SUCROSE SYNTHASE 6 (from UniProt Q9FX32 1-942) (enzyme) | binds | binds | binds

Results are given in words; binding and its absence hold for the method and conditions named. Binding seen in cells or lysates may run through a third protein. These calls come from enrichment with a bait or labelling near it, and not all partners need be listed. Tags and fused reporters may be left off the sequences shown.
